Measurements from PMC7850985.

By UniProt entry, the sequences of proteins in these tests, tags left out. Residues count along the entry.
UniProt P35247, residues 199-375: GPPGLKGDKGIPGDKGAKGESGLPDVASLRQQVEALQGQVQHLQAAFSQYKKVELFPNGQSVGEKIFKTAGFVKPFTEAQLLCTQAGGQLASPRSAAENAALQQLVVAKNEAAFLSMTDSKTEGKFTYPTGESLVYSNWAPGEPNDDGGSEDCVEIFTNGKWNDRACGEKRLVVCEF
UniProt P48643: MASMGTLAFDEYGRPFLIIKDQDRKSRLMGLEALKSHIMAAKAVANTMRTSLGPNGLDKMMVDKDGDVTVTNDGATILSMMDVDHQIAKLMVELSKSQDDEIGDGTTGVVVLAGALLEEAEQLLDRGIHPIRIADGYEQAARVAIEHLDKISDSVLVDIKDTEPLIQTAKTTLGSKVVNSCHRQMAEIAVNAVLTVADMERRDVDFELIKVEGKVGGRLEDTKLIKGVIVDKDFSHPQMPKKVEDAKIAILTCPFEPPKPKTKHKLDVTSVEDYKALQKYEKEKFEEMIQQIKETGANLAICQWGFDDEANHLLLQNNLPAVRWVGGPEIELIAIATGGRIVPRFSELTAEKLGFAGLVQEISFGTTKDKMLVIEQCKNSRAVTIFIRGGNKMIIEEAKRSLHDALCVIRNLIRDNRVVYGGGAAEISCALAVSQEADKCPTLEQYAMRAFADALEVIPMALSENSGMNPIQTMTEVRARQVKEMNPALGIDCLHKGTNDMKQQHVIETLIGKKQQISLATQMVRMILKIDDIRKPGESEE
UniProt P06733: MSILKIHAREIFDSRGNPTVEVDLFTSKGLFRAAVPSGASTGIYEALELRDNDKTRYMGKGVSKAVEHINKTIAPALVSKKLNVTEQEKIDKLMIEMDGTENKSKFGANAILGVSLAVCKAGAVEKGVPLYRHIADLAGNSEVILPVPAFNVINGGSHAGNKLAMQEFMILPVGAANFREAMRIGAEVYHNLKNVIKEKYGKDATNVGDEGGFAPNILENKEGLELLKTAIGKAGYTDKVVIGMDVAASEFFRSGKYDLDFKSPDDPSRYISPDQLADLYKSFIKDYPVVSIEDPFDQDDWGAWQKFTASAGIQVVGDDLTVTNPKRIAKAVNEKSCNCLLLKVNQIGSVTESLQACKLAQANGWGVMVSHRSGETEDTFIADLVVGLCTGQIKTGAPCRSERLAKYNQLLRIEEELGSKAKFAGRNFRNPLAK
UniProt P04406: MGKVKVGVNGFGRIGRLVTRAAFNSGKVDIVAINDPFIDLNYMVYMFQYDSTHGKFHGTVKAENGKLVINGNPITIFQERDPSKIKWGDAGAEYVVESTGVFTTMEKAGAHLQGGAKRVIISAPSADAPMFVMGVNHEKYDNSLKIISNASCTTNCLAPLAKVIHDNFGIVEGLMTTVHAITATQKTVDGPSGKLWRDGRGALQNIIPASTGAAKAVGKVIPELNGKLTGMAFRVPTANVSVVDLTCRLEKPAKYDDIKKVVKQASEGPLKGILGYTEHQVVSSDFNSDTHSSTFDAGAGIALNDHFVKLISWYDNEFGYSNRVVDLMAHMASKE
UniProt P11021, residues 19-654: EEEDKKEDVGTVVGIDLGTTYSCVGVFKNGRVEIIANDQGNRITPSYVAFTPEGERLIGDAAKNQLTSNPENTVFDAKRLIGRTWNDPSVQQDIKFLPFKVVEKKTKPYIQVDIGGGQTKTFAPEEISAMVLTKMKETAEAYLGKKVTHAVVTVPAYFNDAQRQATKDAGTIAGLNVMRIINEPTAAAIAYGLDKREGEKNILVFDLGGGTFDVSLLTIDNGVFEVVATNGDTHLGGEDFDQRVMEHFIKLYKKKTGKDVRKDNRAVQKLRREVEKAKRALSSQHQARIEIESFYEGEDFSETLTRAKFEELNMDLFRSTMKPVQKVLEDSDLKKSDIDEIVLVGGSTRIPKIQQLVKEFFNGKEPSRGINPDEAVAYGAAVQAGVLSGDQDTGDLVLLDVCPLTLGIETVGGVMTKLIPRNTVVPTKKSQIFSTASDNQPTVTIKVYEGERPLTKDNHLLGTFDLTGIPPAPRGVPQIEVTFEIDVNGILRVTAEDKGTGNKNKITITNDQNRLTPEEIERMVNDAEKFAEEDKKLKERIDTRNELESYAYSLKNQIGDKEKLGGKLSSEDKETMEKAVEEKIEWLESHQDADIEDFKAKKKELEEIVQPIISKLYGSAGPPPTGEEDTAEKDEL
UniProt P08238: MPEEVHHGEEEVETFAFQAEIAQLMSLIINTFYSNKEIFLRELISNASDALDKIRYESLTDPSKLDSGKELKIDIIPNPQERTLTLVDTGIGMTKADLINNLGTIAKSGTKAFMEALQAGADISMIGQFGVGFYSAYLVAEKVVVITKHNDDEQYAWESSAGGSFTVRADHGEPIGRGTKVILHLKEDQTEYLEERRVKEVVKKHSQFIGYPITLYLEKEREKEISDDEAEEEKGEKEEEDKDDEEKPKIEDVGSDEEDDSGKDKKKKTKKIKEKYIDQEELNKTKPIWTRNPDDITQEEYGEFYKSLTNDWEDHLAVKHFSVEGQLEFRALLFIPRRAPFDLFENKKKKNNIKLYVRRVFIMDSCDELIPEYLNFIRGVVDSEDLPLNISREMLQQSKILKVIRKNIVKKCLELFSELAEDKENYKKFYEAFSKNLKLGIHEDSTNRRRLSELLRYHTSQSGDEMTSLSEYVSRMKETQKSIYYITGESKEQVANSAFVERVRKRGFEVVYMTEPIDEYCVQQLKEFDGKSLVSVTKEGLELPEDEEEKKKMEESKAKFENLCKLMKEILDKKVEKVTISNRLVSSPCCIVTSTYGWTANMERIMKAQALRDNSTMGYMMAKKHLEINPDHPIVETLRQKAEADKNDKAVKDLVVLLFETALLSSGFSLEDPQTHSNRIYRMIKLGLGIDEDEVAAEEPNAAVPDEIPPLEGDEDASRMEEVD
UniProt P14625, residues 22-803: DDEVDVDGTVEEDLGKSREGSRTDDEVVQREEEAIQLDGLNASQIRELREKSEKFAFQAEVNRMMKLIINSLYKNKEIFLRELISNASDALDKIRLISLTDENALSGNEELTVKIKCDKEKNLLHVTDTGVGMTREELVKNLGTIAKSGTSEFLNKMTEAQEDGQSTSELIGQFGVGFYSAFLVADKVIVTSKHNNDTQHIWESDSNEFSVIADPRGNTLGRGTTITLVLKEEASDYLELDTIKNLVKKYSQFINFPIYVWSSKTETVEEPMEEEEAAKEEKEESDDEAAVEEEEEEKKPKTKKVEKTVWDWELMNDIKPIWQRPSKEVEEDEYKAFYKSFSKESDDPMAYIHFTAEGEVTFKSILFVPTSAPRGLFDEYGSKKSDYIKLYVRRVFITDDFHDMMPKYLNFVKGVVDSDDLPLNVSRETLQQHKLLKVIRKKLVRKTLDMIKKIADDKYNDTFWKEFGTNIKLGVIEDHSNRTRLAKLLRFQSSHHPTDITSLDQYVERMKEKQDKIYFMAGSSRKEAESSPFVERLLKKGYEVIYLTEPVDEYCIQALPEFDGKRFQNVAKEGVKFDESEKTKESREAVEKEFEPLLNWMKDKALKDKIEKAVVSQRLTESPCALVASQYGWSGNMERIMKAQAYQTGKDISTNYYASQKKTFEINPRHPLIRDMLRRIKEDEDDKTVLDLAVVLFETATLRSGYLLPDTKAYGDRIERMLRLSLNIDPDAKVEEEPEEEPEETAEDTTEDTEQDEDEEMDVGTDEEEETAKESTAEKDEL
UniProt P34932: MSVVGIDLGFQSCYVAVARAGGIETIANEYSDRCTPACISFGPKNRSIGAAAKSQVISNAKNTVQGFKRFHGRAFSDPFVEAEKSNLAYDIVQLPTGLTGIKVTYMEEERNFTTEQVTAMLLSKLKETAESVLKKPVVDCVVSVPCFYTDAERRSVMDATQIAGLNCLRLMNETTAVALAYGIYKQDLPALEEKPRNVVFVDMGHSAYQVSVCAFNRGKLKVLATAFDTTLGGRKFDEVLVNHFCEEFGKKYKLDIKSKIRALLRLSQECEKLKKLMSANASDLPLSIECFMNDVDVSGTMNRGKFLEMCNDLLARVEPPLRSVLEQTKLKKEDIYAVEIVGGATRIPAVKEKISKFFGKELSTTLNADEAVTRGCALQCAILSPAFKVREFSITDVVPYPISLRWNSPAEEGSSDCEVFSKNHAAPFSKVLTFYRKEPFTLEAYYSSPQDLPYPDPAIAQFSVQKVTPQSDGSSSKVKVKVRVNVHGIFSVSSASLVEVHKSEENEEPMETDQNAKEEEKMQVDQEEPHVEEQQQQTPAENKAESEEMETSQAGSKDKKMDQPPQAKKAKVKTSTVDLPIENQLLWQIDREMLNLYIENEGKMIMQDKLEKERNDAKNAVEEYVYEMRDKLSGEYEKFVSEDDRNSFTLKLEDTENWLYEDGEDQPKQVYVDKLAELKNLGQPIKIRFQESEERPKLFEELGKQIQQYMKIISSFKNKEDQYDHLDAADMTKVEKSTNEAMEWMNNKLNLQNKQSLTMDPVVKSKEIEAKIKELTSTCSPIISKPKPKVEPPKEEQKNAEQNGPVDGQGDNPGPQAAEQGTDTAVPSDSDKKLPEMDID
UniProt P11142: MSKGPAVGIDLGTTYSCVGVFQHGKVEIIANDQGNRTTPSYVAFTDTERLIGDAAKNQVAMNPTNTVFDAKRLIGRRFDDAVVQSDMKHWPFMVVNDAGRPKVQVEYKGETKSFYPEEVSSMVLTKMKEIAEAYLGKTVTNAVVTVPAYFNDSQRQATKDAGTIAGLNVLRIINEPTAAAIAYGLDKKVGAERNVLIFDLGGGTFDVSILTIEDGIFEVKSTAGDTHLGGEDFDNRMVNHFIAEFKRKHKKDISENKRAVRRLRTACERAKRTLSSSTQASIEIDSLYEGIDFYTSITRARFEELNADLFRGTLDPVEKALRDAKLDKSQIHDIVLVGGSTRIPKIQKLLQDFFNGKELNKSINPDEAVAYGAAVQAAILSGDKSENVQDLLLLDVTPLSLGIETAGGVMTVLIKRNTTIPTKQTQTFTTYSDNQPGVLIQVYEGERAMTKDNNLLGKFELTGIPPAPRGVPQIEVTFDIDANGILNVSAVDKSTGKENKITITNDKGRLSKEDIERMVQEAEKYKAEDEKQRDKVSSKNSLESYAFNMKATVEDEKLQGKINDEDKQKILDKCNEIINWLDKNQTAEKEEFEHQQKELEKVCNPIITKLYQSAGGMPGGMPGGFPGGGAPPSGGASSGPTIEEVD
UniProt P38646, residues 47-679: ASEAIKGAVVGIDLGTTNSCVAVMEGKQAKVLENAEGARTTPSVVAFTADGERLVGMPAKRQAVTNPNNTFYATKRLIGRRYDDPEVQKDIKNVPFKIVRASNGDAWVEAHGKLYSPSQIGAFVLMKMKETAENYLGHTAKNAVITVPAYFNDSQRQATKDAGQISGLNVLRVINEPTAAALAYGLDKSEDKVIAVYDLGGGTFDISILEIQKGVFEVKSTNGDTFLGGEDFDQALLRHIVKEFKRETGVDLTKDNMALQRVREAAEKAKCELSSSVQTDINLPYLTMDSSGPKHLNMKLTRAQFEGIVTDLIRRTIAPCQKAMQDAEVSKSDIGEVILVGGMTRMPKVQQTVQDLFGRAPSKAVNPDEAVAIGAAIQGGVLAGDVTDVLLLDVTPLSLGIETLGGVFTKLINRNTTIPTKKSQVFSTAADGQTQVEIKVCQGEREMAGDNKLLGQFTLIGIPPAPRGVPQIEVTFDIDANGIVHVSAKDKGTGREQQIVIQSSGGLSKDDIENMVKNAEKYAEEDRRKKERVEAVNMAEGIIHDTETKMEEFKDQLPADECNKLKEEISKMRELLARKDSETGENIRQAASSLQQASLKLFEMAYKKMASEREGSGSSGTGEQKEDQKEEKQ
UniProt P10809, residues 27-573: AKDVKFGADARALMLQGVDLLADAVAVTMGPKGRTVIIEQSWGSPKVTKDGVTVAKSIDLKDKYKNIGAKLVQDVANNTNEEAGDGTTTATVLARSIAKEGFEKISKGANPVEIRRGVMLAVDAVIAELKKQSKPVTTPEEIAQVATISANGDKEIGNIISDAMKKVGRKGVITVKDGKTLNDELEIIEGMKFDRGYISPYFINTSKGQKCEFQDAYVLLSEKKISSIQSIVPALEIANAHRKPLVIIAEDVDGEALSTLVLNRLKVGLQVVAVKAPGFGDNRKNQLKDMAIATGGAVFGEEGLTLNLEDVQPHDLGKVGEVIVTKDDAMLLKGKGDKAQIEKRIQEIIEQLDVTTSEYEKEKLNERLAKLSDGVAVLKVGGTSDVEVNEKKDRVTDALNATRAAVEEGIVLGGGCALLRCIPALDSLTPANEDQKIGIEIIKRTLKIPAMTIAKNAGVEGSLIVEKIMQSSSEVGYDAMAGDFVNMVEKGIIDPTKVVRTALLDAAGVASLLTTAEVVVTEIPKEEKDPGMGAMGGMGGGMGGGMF
UniProt P31025, residues 19-176: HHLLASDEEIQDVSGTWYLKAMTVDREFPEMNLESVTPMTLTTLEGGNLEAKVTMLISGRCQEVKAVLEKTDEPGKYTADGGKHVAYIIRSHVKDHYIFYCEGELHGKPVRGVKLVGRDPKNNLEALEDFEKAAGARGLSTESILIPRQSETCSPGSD

B1: PDIA6 (protein, UniProt Q15084 20-440)
chain: LYSSSDDVIELTPSNFNREVIQSDSLWLVEFYAPWCGHCQRLTPEWKKAATALKDVVKVGAVDADKHHSLGGQYGVQGFPTIKIFGSNKNRPEDYQGGRTGEAIVDAALSALRQLVKDRLGGRSGGYSSGKQGRSDSSSKKDVIELTDDSFDKNVLDSEDVWMVEFYAPWCGHCKNLEPEWAAAASEVKEQTKGKVKLAAVDATVNQVLASRYGIRGFPTIKIFQKGESPVDYDGGRTRSDIVSRALDLFSDNAPPPELLEIINEDIAKRTCEEHQLCVVAVLPHILDTGAAGRNSYLEVLLKLADKYKKKMWGWLWTEAGAQSELETALGIGGFGYPAMAAINARKMKFALLKGSFSEQGINEFLRELSFGRGSTAPVGGGAFPTIVEREPWDGRDGELPVEDDIDLSDVELDDLGKDEL
B2: A2ML1 (α2-macroglobulin-like protein 1) (protein, UniProt A8K2U0 18-1454)
chain: EELPNYLVTLPARLNFPSVQKVCLDLSPGYSDVKFTVTLETKDKTQKLLEYSGLKKRHLHCISFLVPPPAGGTEEVATIRVSGVGNNISFEEKKKVLIQRQGNGTFVQTDKPLYTPGQQVYFRIVTMDSNFVPVNDKYSMVELQDPNSNRIAQWLEVVPEQGIVDLSFQLAPEAMLGTYTVAVAEGKTFGTFSVEEYVLPKFKVEVVEPKELSTVQESFLVKICCRYTYGKPMLGAVQVSVCQKANTYWYREVEREQLPDKCRNLSGQTDKTGCFSAPVDMATFDLIGYAYSHQINIVATVVEEGTGVEANATQNIYISPQMGSMTFEDTSNFYHPNFPFSGKIRVRGHDDSFLKNHLVFLVIYGTNGTFNQTLVTDNNGLAPFTLETSGWNGTDVSLEGKFQMEDLVYNPEQVPRYYQNAYLHLRPFYSTTRSFLGIHRLNGPLKCGQPQEVLVDYYIDPADASPDQEISFSYYLIGKGSLVMEGQKHLNSKKKGLKASFSLSLTFTSRLAPDPSLVIYAIFPSGGVVADKIQFSVEMCFDNQVSLGFSPSQQLPGAEVELQLQAAPGSLCALRAVDESVLLLRPDRELSNRSVYGMFPFWYGHYPYQVAEYDQCPVSGPWDFPQPLIDPMPQGHSSQRSIIWRPSFSEGTDLFSFFRDVGLKILSNAKIKKPVDCSHRSPEYSTAMGAGGGHPEAFESSTPLHQAEDSQVRQYFPETWLWDLFPIGNSGKEAVHVTVPDAITEWKAMSFCTSQSRGFGLSPTVGLTAFKPFFVDLTLPYSVVRGESFRLTATIFNYLKDCIRVQTDLAKSHEYQLESWADSQTSSCLCADDAKTHHWNITAVKLGHINFTISTKILDSNEPCGGQKGFVPQKGRSDTLIKPVLVKPEGVLVEKTHSSLLCPKGKVASESVSLELPVDIVPDSTKAYVTVLGDIMGTALQNLDGLVQMPSGCGEQNMVLFAPIIYVLQYLEKAGLLTEEIRSRAVGFLEIGYQKELMYKHSNGSYSAFGERDGNGNTWLTAFVTKCFGQAQKFIFIDPKNIQDALKWMAGNQLPSGCYANVGNLLHTAMKGGVDDEVSLTAYVTAALLEMGKDVDDPMVSQGLRCLKNSATSTTNLYTQALLAYIFSLAGEMDIRNILLKQLDQQAIISGESIYWSQKPTPSSNASPWSEPAAVDVELTAYALLAQLTKPSLTQKEIAKATSIVAWLAKQHNAYGGFSSTQDTVVALQALAKYATTAYMPSEEINLVVKSTENFQRTFNIQSVNRLVFQQDTLPNVPGMYTLEASGQGCVYVQTVLRYNILPPTNMKTFSLSVEIGKARCEQPTSPRSLTLTIHTSYVGSRSSSNMAIVEVKMLSGFSPMEGTNQLLLQQPLVKKVEFGTDTLNIYLDELIKNTQTYTFTISQSVLVTNLKPATIKVYDYYLPDEQATIQYSDPCE
B3: CCT2 (protein, UniProt P78371 1-535)
chain: MASLSLAPVNIFKAGADEERAETARLTSFIGAIAIGDLVKSTLGPKGMDKILLSSGRDASLMVTNDGATILKNIGVDNPAAKVLVDMSRVQDDEVGDGTTSVTVLAAELLREAESLIAKKIHPQTIIAGWREATKAAREALLSSAVDHGSDEVKFRQDLMNIAGTTLSSKLLTHHKDHFTKLAVEAVLRLKGSGNLEAIHIIKKLGGSLADSYLDEGFLLDKKIGVNQPKRIENAKILIANTGMDTDKIKIFGSRVRVDSTAKVAEIEHAEKEKMKEKVERILKHGINCFINRQLIYNYPEQLFGAAGVMAIEHADFAGVERLALVTGGEIASTFDHPELVKLGSCKLIEEVMIGEDKLIHFSGVALGEACTIVLRGATQQILDEAERSLHDALCVLAQTVKDSRTVYGGGCSEMLMAHAVTQLANRTPGKEAVAMESYAKALRMLPTIIADNAGYDSADLVAQLRAAHSEGNTTAGLDMREGTIGDMAILGITESFQVKRQVLLSAAEAAEVILRVDNIIKAAPRKRVPDHHPC
B4: S100A7 (protein, UniProt P31151 1-101)
chain: MSNTQAERSIIGMIDMFHKYTRRDDKIEKPSLLTMMKENFPNFLSACDKKGTNYLADVFEKKDKNEDKKIDFSEFLSLLGDIATDYHKQSHGAAPCSGGSQ

molecular target: recombinant fragment of human surfactant protein D (rfhSP-D) (human) (UniProt P35247); test: affinity purification with mass spectrometry; PC3 cells pre-incubated with rfhSP-D (20 µg/ml, 5 mM CaCl2, 2 h, 37°C), washed; membrane protein extract with bound rfhSP-D precipitated with polyclonal anti-human SP-D antibody on protein A/G magnetic beads; eluate depleted of HSA/IgG; LC-MS/MS; only the target purified

binding	Molecule
binds	C1QBP (C1q receptor, gC1qR) (from UniProt Q07021 74-282)
binds	CALR (Calreticulin) (from UniProt P27797 18-417)
binds	CCT5 (from UniProt P48643 1-541)
binds	CCT8 (from UniProt P50990 1-548)
binds	ENO1 (from UniProt P06733 1-434)
binds	GAPDH (from UniProt P04406 1-335)
binds	Glucose Regulated Protein of 78 kDa (GRP78), endogenous in PC3 membrane fraction (from UniProt P11021 19-654)
binds	HSP90AA1 (from UniProt P07900 1-732)
binds	HSP90AB1 (from UniProt P08238 1-724)
binds	HSP90B1 (from UniProt P14625 22-803)
binds	HSPA4 (from UniProt P34932 1-840)
binds	HSPA8 (from UniProt P11142 1-646)
binds	HSPA9 (from UniProt P38646 47-679)
binds	HSPD1 (from UniProt P10809 27-573)
binds	LCN1 (from UniProt P31025 19-176)
binds	LCN2 (from UniProt P80188 21-198)
binds	VCP (from UniProt P55072 1-806)
binds	B1
binds	B2
binds	B3
binds	B4

No constants are given. Whether binding was seen depends on the method and setting. In cells and extracts the contact can be indirect. Here binding means that the protein was enriched with, or labelled near, the bait; the list need not be complete.
